Measured values as given in article PMC10027610.
Results are given in words; binding and its absence hold for the method and conditions named. Binding seen in cells or lysates may run through a third protein. Here binding means that the protein was enriched with, or labelled near, the bait; the list need not be complete. Blank lines part the entries; values can stand above or below the binder they belong to.

Target: HD2A-FLAG (pHD2A:HD2A-FLAG transgene) (Arabidopsis thaliana)
Test: affinity purification with mass spectrometry; IP-MS: lysate of 10 g unopened floral buds of FLAG-tag transgenic plants (Col-0 wild type as control) in IP buffer, anti-FLAG M2 magnetic beads, 4 °C for 2 h, eluted with 3xFLAG peptides, TCA precipitation, MS

binding: binds
B1: HD2C (enzyme, UniProt Q9LZR5 1-294)
chain: MEFWGVEVKNGKPLHLDPGLDRLVHISQVALGESKNNVTEPIQLYVTVGSDKLLIGTLSHEKFPQLSTEIVLERNFALSHTWKNGSVFFSGYKVDASDPEPEDLIDDQLEAAGFKAAPKSAAKQVNFQLPNEDVKAKQDDDADGSEEDSSDDDDSENSGDEEEEKVTAESDSEEDDSSDDEEDDSSEEETPKKPEEPKKRSAEPNSSKNPASNKKAKFVTPQKTDSKKPHVHVATPHPSKQAGKNSGGGSTGETSKQQQTPKSAGAFGCKSCTRTFTSEMGLQSHTKAKHSAAA

binding: binds
B2: HD2B (enzyme, UniProt Q56WH4 1-306)
chain: MEFWGVAVTPKNATKVTPEEDSLVHISQASLDCTVKSGESVVLSVTVGGAKLVIGTLSQDKFPQISFDLVFDKEFELSHSGTKANVHFIGYKSPNIEQDDFTSSDDEDVPEAVPAPAPTAVTANGNAGAAVVKADTKPKAKPAEVKPAEEKPESDEEDESDDEDESEEDDDSEKGMDVDEDDSDDDEEEDSEDEEEEETPKKPEPINKKRPNESVSKTPVSGKKAKPAAAPASTPQKTEEKKKGGHTATPHPAKKGGKSPVNANQSPKSGGQSSGGNNNKKPFNSGKQFGGSNNKGSNKGKGKGRA
